Test [1] concerns SARS-CoV-2 -1 PRF reporter mCherry-FSE-GFP(-1). Kind of test: mCherry (red) intensity as percent of control; higher = higher upstream reporter expression. Conditions: 10 µM; 24 h; HEK293T.
Test [2] has the same test system. In words: percent effect, decrease of GFP/mCherry ratio (-1 PRF reporter) relative to controls; higher = stronger frameshift inhibition. The note with it: 10 µM; 24 h; HEK293T.

Each structure is given as a SMILES string. “And” between values parts separate entries of the source, which are not always exact repeats. Equal entries are not always repeated. Some of the results follow. Repeats in this data set agree poorly, so a single value says little.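 HEK293T cells were given each compound shortly before transfection with a reporter in which red mCherry is followed by the SARS-CoV-2 frameshift element and then GFP in the −1 frame, so GFP appears only after frameshifting.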

In turn, `CC(C)c1nc(N(C)S(C)(=O)=O)nc(-c2ccc(F)cc2)c1/C=C/[C@@H](O)C[C@@H](O)CC(=O)O` [rosuvastatin] registered a mCherry in test [1] of 101%. Further, the percent effect in test [2] was -5.15%.

In test [1], `CN(C)[C@@H]1C(=O)C(C(N)=O)=C(O)[C@@]2(O)C(=O)C3=C(O)c4c(O)cccc4C[C@H]3C[C@@H]12` [sancycline] gave a mCherry of 45.2%. The percent effect in test [2] came out at 0.667%.

As to `CCOC(=O)NNC(C)c1ccccc1` (configuration not stated) [carbenzide], the mCherry in test [1] came to 107%. Also, the percent effect in test [2] is 0.0554%.

Regarding `O=C(/C=C/c1ccc2c(c1)OCO2)N1CCCCC1` [ilepcimide], the mCherry in test [1] was found to be 87.7%. Besides, in test [2], the percent effect was -4.26%.

In test [1], `CCOc1ccc2ccccc2c1C(=O)N[C@@H]1C(=O)N2[C@@H]1SC(C)(C)[C@@H]2C(=O)O` [Unipen] returned a mCherry of 97.8%. Further, the percent effect in test [2] is 0.193%.

`CC1(c2ccccc2)CC(=O)N(CN2CCOCC2)C1=O` (configuration not stated) [morsuximide] came in with a mCherry in test [1] of 96.9%. In addition, the percent effect in test [2] is -11.1%.

For the compound `C[n+]1cc2c3c(ccc2c2ccc4cc5c(cc4c21)OCO5)OCO3`, the mCherry in test [1] amounted to 16.7%. In test [2], the percent effect was -0.394%.

As for `CN(C)CCc1c[nH]c2ccc(CS(=O)(=O)N3CCCC3)cc12` [almotriptan], the mCherry in test [1] was determined as 115%. The percent effect in test [2] was -2.33%.

In turn, `N#CC(c1ccc(Cl)cc1)c1c(Cl)cc(-n2ncc(=O)[nH]c2=O)cc1Cl` (configuration not stated) [diclazuril] gave a mCherry in test [1] of 126%. In addition, in test [2], the percent effect was -3.11%.

`Nc1nc(=O)c2c([nH]1)NCC(CNc1ccc(C(=O)N[C@@H](CCC(=O)O)C(=O)O)cc1)N2C=O` (some centres not stated) [Leucovorin] returned a mCherry in test [1] of 78.7%. Further, the percent effect in test [2] is -3.42%.

On to `CC1=C(/C=C/C(C)=C/C=C/C(C)=C/C(=O)Nc2ccc(O)cc2)C(C)(C)CCC1` [fenretinide], for which the mCherry in test [1] is 18.7%. Further, in test [2], the percent effect is -4.75%.

`CN(C)CCOC(C)(c1ccccc1)c1ccc(Br)cc1` (configuration not stated) [embramine] came in with a mCherry in test [1] of 62.7%. In test [2], the percent effect is -1.32%.

`C/N=C(\NC)NCc1ccccc1` [betanidine] displayed a mCherry in test [1] of 139%. Moreover, the percent effect in test [2] worked out at 0.689%.

`COc1ccccc1O` yielded a mCherry in test [1] of 92.5%. For the same compound, the percent effect in test [2] is -3.62%.

Consider `CC(C(=O)O)c1ccc2oc(-c3ccc(Cl)cc3)nc2c1` (configuration not stated) [benoxaprofen], for which the mCherry in test [1] came to 61.6%. In test [2], the percent effect was -4.8%.

Turning to `CC(C)(C)CC(C)(C)c1cc(Cc2cc(C(C)(C)CC(C)(C)C)cc(-n3nc4ccccc4n3)c2O)c(O)c(-n2nc3ccccc3n2)c1` [bisoctrizole], the mCherry in test [1] worked out at 107%. Besides, in test [2], the percent effect is -0.494%.

In test [1], `COc1c(N2C[C@@H]3CCCN[C@@H]3C2)c(F)cc2c(=O)c(C(=O)O)cn(C3CC3)c12` [moxifloxacin] returned a mCherry of 96.2%. Further, in test [2], the percent effect is -1.71%.

`CC1=NS(=O)(=O)c2cc(Cl)ccc2N1`: the mCherry in test [1] is 123%. In addition, the percent effect in test [2] is 2.04%.

Compound `CCCCCCCCCCCCCC[n+]1ccc(C)cc1` [miripirium] came in with a mCherry in test [1] of 197%. Besides, in test [2], the percent effect was -22.9%.

As for `N[C@H]1C(O)O[C@H](CO)[C@@H](O)[C@@H]1O` (some centres not stated), the mCherry in test [1] is 108% and 104%. The percent effect in test [2] is -2.24% and -4.91%.

In test [1], `CCNCC1CCN(c2c(F)cc3c(=O)c(C(=O)O)cn(CC)c3c2F)C1` (configuration not stated) [merafloxacin] showed a mCherry of 82.5%. Also, the percent effect in test [2] is 25%.

`Cc1ncsc1CCCCl` [cloprothiazole]: the mCherry in test [1] is 81.7%. Also, the percent effect in test [2] is -1.14%.

For the compound `CC(=O)[C@H]1CC[C@H]2[C@@H]3CC=C4C[C@@H](O)CC[C@]4(C)[C@H]3CC[C@]12C` [pregnenolone], the mCherry in test [1] was 101% and 84.4%. The percent effect in test [2] was 0.0203% and -3.47%.

The compound `COc1ccc2c(O[C@@H]3C[C@H]4C(=O)N[C@]5(C(=O)O)C[C@@H]5/C=C\CCCCC[C@H](NC(=O)OC5CCCC5)C(=O)N4C3)cc(-c3csc(NC(=O)C(C)C)n3)nc2c1C` gave a mCherry in test [1] of 42.1%. Besides, the percent effect in test [2] is -1.75%.

`CCCCCCCCCCCCCCCCCC(=O)OC[C@@H](O)[C@H]1OC[C@H](O)[C@H]1O` [sorbitan stearate] returned a mCherry in test [1] of 80.4%. The percent effect in test [2] came out at 0.182%.

The compound `CCN(CC)C(=O)c1cccc(C)c1` showed a mCherry in test [1] of 117%. The percent effect in test [2] is -1.46%.

Compound `CC(N)C12CC3CC(CC(C3)C1)C2` (configuration not stated) had a mCherry in test [1] of 101%. Moreover, the percent effect in test [2] was -2.39%.

In the case of `CCOc1ccc(C(=O)OCCN(CC)CC)cc1` [parethoxycaine], in test [1], the mCherry worked out at 92%. Besides, the percent effect in test [2] was -3.5%.

In the case of `Cc1ccc(C2(O)CCN(CCCC(=O)c3ccc(F)cc3)CC2)cc1` [moperone], the mCherry in test [1] was determined as 73.1%. In addition, the percent effect in test [2] was determined as 1.75%.

`COc1cc(O)cc(O)c1` [flamenol] returned a mCherry in test [1] of 71.3%. Besides, the percent effect in test [2] was -5.66%.

`c1cnc2cc3c(cc2n1)[C@@H]1CNC[C@H]3C1` [varenicline] returned a mCherry in test [1] of 105%. The percent effect in test [2] is 0.345%.

In turn, `CC(=O)Nc1ccccc1` registered a mCherry in test [1] of 102%. The percent effect in test [2] was -11.6%.

With `CC(CCc1ccc(O)cc1)NCCc1ccc(O)c(O)c1` (configuration not stated), the mCherry in test [1] was 89.6% and 84.3%. Moreover, the percent effect in test [2] was -4.38% and -0.617%.

`N=C(N)NCCN1CCCCCCC1` registered a mCherry in test [1] of 112%. Also, in test [2], the percent effect is -5.56%.

As for `Cc1nnc(C(C)C)n1C1C[C@H]2CC[C@@H](C1)N2CC[C@H](NC(=O)C1CCC(F)(F)CC1)c1ccccc1` (stereo in doubt) [maraviroc], the mCherry in test [1] was 70.5%. Besides, the percent effect in test [2] is -3.57%.

`CC1(C)S[C@@H]2[C@H](NC(=O)[C@H](N)c3ccccc3)C(=O)N2[C@H]1C(=O)O` displayed a mCherry in test [1] of 85.6%. In addition, in test [2], the percent effect was found to be 0.634%.

Take `O=C(O)Cc1cc(I)c(Oc2ccc(O)c(I)c2)c(I)c1` [tiratricol]: the mCherry in test [1] was found to be 104%. For the same compound, the percent effect in test [2] came out at 0.111%.

`COc1ccccc1Oc1c(NS(=O)(=O)c2ccc(C(C)(C)C)cc2)nc(-c2ncccn2)nc1OCCO` [bosentan] came in with a mCherry in test [1] of 90.3%. Moreover, the percent effect in test [2] is 0.523%.

The compound `CCN(CC)Cc1cc(Nc2ccnc3cc(Cl)ccc23)ccc1O` [amodiaquine] gave a mCherry in test [1] of 145%. The percent effect in test [2] was determined as 0.977%.

Take `CCN1CC(CCN2CCOCC2)C(c2ccccc2)(c2ccccc2)C1=O` (configuration not stated) [doxapram]: the mCherry in test [1] was 101%. Besides, the percent effect in test [2] was -1.7%.

`CC1=C(C)C(=O)C(CCCCC#CCCCC#CCO)=C(C)C1=O` [docebenone] registered a mCherry in test [1] of 79.5%. Further, the percent effect in test [2] was -0.418%.

On to `CO[C@@]1(NC(=O)CSCC#N)C(=O)N2C(C(=O)O)=C(CSc3nnnn3C)CS[C@@H]21` [cefmetazole], for which the mCherry in test [1] was found to be 90.9%. Besides, in test [2], the percent effect was 1.08%.

In test [1], `CC(=O)O[C@@H]1C[C@@H]2CC[C@@]1(C)C2(C)C` returned a mCherry of 92.7%. Besides, in test [2], the percent effect was found to be 1.62%.

The compound `Cc1cc2nc3c(=O)[nH]c(=O)nc-3n(C[C@H](O)[C@H](O)[C@H](O)CO)c2cc1C` had a mCherry in test [1] of 91.6%. In addition, the percent effect in test [2] is -3.13%.

As to `CC(C)Cc1ccc(C(C)C(=O)O)cc1` (configuration not stated) [ibuprofen], the mCherry in test [1] is 101% and 114%. Moreover, the percent effect in test [2] was 3.47% and -6.37%.

On to `O=S(=O)(O)c1cc(I)c(O)c2ncccc12` [chiniofon], for which the mCherry in test [1] was 98.6%. Besides, the percent effect in test [2] was -3.15%.

Compound `CC1(C)[C@@H](O)CC[C@]2(C)[C@H]3C(=O)C=C4[C@@H]5C[C@@](C)(C(=O)O)CC[C@]5(C)CC[C@@]4(C)[C@]3(C)CC[C@@H]12` [enoxolone] came in with a mCherry in test [1] of 111%. For the same compound, the percent effect in test [2] came to 2.89%.

Consider `CCOc1ccccc1OCCN[C@H](C)Cc1ccc(OC)c(S(N)(=O)=O)c1` [tamsulosin], for which the mCherry in test [1] is 93.4% and 102%. Besides, the percent effect in test [2] was -1.16% and -13.1%.

The compound `CN1CCC(OC(=O)C(Oc2ccc(Cl)cc2)Oc2ccc(Cl)cc2)CC1` [lifibrate] came in with a mCherry in test [1] of 79%. In addition, the percent effect in test [2] is -9.76%.

`CCOc1c(N2CCOCC2)cnn(C)c1=O` [emorfazone] showed a mCherry in test [1] of 90.1%. Moreover, the percent effect in test [2] worked out at 0.116%.

Turning to `CC(C)CCC[C@@H](C)[C@H]1CC[C@H]2[C@@H]3CC=C4C[C@@H](O)CC[C@]4(C)[C@H]3CC[C@]12C`, the mCherry in test [1] was 141%. In addition, the percent effect in test [2] was -3.7%.

Values taken from the supplement of paper PMC8256030.
